Measurements reported in publication PMC9727977, “Pharmacokinetics and pharmacodynamics of bioactive compounds in Penyanqing preparation in THP-1 inflammatory cells induced by Lipopolysaccharide” (BMC Complementary Medicine and Therapies, 2022).

test system: IL-1β production in LPS-induced THP-1 cells; assay: Effect of PYQ drug-containing plasma on IL-1β production in LPS-induced THP-1 cells (ELISA) and PK-PD fitting; format: cell-based, human; details: PK-PD model; X plasma concentration of the compound, Y IL-1β of THP-1 cells treated with drug-containing plasma

Row | Molecule | fitting equation, effect fitting of blood concentration—IL-1β
1 | C[C@@H]1O[C@@H](O[C@H]2C(=O)c3c(O)cc(O)cc3O[C@@H]2c2ccc(O)c(O)c2)[C@H](O)[C@H](O)[C@H]1O [AST, astilbin] | Y = 33.736—1.448 lnX
2 | O=C(/C=C/c1ccc(O)c(O)c1)O[C@@H]1C[C@](O)(C(=O)O)C[C@@H](O)[C@H]1O [CH, chlorogenic acid] | Y = 32.247—1.386 lnX
3 | COc1cc(/C=C/C(=O)O)ccc1O [FE, ferulic acid] | Y = 33.427—1.446 lnX
4 | C[C@@]12C[C@@]3(O)O[C@@H](O1)[C@]1(COC(=O)c4ccccc4)[C@H]3C[C@@]12O[C@@H]1O[C@H](CO)[C@@H](O)[C@H](O)[C@H]1O [PE, paeoniflorin] | Y = 33.598—1.428 lnX
5 | O=Cc1ccc(O)c(O)c1 [PRO, protocatechualdehyde] | Y = 33.031—1.454 lnX
6 | salvianolic acid B [SAB] | Y = 40.971—2.540 lnX
